Measured values reported in patent publication US10105357B2, “Indication of antibiotic drugs for preparation of cancer inhibition pharmaceutical composition” (LAUNX BIOMEDICAL CO., LTD., priority 2014, dated 2018).
Structures can show the parent of a compound that is named as a salt. At least one compound was matched to its structure with a doubt left. Some compounds share one wording; it may come from a single statement.

What follows are compounds tested on cancer cell lines (assay: Cell viability analysis (WST-1) on cancer cell lines). Settings: drug 10 μM, 72 hours, Table 3.
Assay type: cell-based, human

| Compound | inhibition effect on different cancer cell lines |
| --- | --- |
| Nc1nc(NC2CC2)c2ncn([C@H]3C=C[C@@H](CO)C3)c2n1 [Abacavir sulfate] | significant inhibition effect |
| Nc1nccs1 [Aminothiazole] | significant inhibition effect |
| COC(=O)N/N=C/c1c[n+]([O-])c2ccccc2[n+]1[O-] [Carbadox] | significant inhibition effect |
| C=CC1=C(C(=O)O)N2C(=O)[C@@H](NC(=O)/C(=N\O)c3csc(N)n3)[C@H]2SC1 [Cefdinir (Omnicef), Cefdinir] | significant inhibition effect |
| CCC[C@@H]1C[C@@H](C(=O)N[C@@H]([C@H]2O[C@H](SC)[C@H](OP(=O)(O)O)[C@@H](O)[C@H]2O)[C@H](C)Cl)N(C)C1 [Clindamycin phosphate] | significant inhibition effect |
| CCC[C@@H]1C[C@@H](C(=O)N[C@@H]([C@H]2O[C@H](SC)[C@H](O)[C@@H](O)[C@H]2O)[C@H](C)Cl)N(C)C1 [Clindamycin] | significant inhibition effect |
| CC[C@H]1OC(=O)[C@H](C)[C@@H](O[C@H]2C[C@@](C)(OC)[C@@H](O)[C@H](C)O2)[C@H](C)[C@@H](O[C@@H]2O[C@H](C)C[C@H](N(C)C)[C@H]2O)[C@](C)(O)C[C@@H](C)[C@@H]2N[C@@H](COCCOC)O[C@H]([C@H]2C)[C@]1(C)O [Dirithromycin] | significant inhibition effect |
| Nc1ccn([C@@H]2CS[C@H](CO)O2)c(=O)n1 [Lamivudine (Epivir), Lamivudine] | significant inhibition effect |
| C[C@H]1COc2c(N3CCN(C)CC3)c(F)cc3c(=O)c(C(=O)O)cn1c23 [Levofloxacin (Levaquin), Levofloxacin] | significant inhibition effect |
| Cc1cc(=O)[nH]c(=S)[nH]1 [Methylthiouracil] | significant inhibition effect |
| COc1c(C)c2c(c(O)c1C/C=C(\C)CCC(=O)O)C(=O)OC2 [Mycophenolic (Mycophenolate), Mycophenolic] | significant inhibition effect |
| CN(C)[C@@H]1C(O)=C(C(N)=O)C(=O)[C@@]2(O)C(O)=C3C(=O)c4c(O)cccc4[C@@](C)(O)[C@H]3[C@H](O)[C@@H]12 [Oxytetracycline (Terramycin), Oxytetracycline] | significant inhibition effect |
| CN(CCOc1ccc(CC2SC(=O)NC2=O)cc1)c1ccccn1 (stereo not shown) [Rosiglitazone maleate] | significant inhibition effect |
| N#C[C@@H]1C[C@@H]2C[C@@H]2N1C(=O)[C@@H](N)C12CC3CC(CC(O)(C3)C1)C2 [Saxagliptin (BMS-477118,Onglyza), Saxagliptin] | significant inhibition effect |
| CC(=O)[C@@]1(O)CC[C@H]2[C@@H]3CCC4=CC(=O)CCC4=C3[C@@H](c3ccc(N(C)C)cc3)C[C@@]21C [Ulipristal] | significant inhibition effect |
| CCCc1nc(C)c2c(=O)[nH]c(-c3cc(S(=O)(=O)N4CCN(CC)CC4)ccc3OCC)nn12 [Vardenafil (Vivanza), Vardenafil] | significant inhibition effect |
